Molecules are shown by their SMILES. Structures can show the parent of a compound that is named as a salt. The list shows a part of the results. Repeats in this data set agree poorly, so a single value says little.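 Human kidney-derived cells stably carry a construct in which eight TEAD-binding elements drive luciferase, measured by luminescence in a drug-repurposing library screen. A hit is any compound whose signal exceeds the plate mean by more than five robust Z scores.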

Data on 27 compounds can be found in the supplement of paper PMC10735217.

The test concerns HEK293A TEAD-LUC reporter. In words: TEAD-luciferase reporter activity (YAP activation), robust Z score vs plate; higher = stronger YAP/TEAD activation. Conditions: 24 h. A general note: Reporter assays use an easily measured gene product as a stand-in for the process of interest.

As to `COc1ccccc1N1CCN(CCCCn2c(=O)sc3cc(CCN4CCC(C(=O)c5ccc(F)cc5)CC4)ccc32)CC1`, the TEAD-luciferase reporter activity is inactive: -2.11 (compound concentration: 200 nM), inactive: 0.0102 (compound concentration: 2 uM) and inactive: 2.6 (compound concentration: 10 uM).
As to `N#Cc1cc(Cl)cc(Oc2c(Cl)ccc3c2cnn3Cc2n[nH]c3ncccc23)c1`, the TEAD-luciferase reporter activity was inactive: 0.594 (compound concentration: 200 nM), inactive: -0.367 (compound concentration: 2 uM) and inactive: 0.378 (compound concentration: 10 uM).
For `C[C@H]1Cc2c([nH]c3cc(Cl)c(F)cc23)[C@@]2(N1)C(=O)Nc1ccc(Cl)cc12`, the TEAD-luciferase reporter activity by setting is: (compound concentration: 200 nM) inactive: -0.697; (compound concentration: 2 uM) inactive: -0.108; (compound concentration: 10 uM) inactive: -1.4.
On to `CCNCCCNCCCNCCCNCC`, for which the TEAD-luciferase reporter activity (compound concentration: 200 nM) is inactive: 1.44, the TEAD-luciferase reporter activity (compound concentration: 2 uM) was inactive: -1.85 and the TEAD-luciferase reporter activity (compound concentration: 10 uM) was inactive: 3.33.
The corresponding values for `Oc1cccc(O)c1O` are inactive: -0.824, inactive: -2.22 and inactive: 0.311.
Regarding `CCN(CC)CCCCC(NC(=O)c1ccc([N+](=O)[O-])cc1)c1ccccc1` (centres undefined) [Nibentan], the TEAD-luciferase reporter activity is inactive: -1.37 (compound concentration: 200 nM), inactive: 1.56 (compound concentration: 2 uM) and inactive: 0.218 (compound concentration: 10 uM).
Turning to `Cc1ccc(Sc2ccccc2N2CCNCC2)c(C)c1` [Vortioxetine hydrobromide], the TEAD-luciferase reporter activity runs as follows: (compound concentration: 200 nM) inactive: 0.185; (compound concentration: 2 uM) inactive: -0.453; (compound concentration: 10 uM) inactive: -0.933.
With `CCCCCNC(=N)Nc1nc(-c2c[nH]c(C)n2)cs1`, the TEAD-luciferase reporter activity was inactive: -0.842 (compound concentration: 200 nM), inactive: -1.44 (compound concentration: 2 uM) and active: 6.4 (compound concentration: 10 uM).
For `CNCc1nc2c([nH]1)c(=O)n(C)c(=O)n2CC(C)C`, in that order: inactive: 2.35, inactive: -1.47 and inactive: -0.632.
Turning to `CCCCN1CCCC1C(=O)Nc1c(C)cc(C)cc1C` (centres undefined), the TEAD-luciferase reporter activity is inactive: 0.992 (compound concentration: 200 nM), inactive: -2.43 (compound concentration: 2 uM) and inactive: -0.716 (compound concentration: 10 uM).
With `CN1C(C(=O)Nc2ccccn2)=C(O)c2ccccc2S1(=O)=O` [piroxicam olamine], the TEAD-luciferase reporter activity (compound concentration: 2 uM) was inactive: -0.0997.
In the case of `CN1C(C(=O)Nc2ccccn2)=C(O)c2ccccc2S1(=O)=O` [Piroxicam], the TEAD-luciferase reporter activity reads like this: (compound concentration: 200 nM) inactive: -2.8; (compound concentration: 10 uM) inactive: -0.047.
For the compound `CN1CCN(C2CCN(C(=O)Nc3cc(Oc4ccc(NC(=O)C5(C(=O)Nc6ccc(F)cc6)CC5)c(F)c4)ccn3)CC2)CC1` [golvatinib], the TEAD-luciferase reporter activity by setting is: (compound concentration: 200 nM) inactive: -1.56; (compound concentration: 2 uM) inactive: -2.62.
As to `OC(CCN1CCCCC1)(c1ccccc1)C1CCCCC1` (centres undefined), the TEAD-luciferase reporter activity (compound concentration: 200 nM) is inactive: -0.286, the TEAD-luciferase reporter activity (compound concentration: 2 uM) is inactive: 0.141 and the TEAD-luciferase reporter activity (compound concentration: 10 uM) is inactive: 0.489.
For `Cc1nc2ccc(-n3ncc(C(=O)c4cc5ccccc5[nH]4)c3N)cc2[nH]1`, the TEAD-luciferase reporter activity (compound concentration: 200 nM) was inactive: 1.7, the TEAD-luciferase reporter activity (compound concentration: 2 uM) was inactive: -1.46 and the TEAD-luciferase reporter activity (compound concentration: 10 uM) is inactive: 0.059.
With `COC1=C(OC)C(=O)C(CCCCCCCCCCO)=C(C)C1=O`, the TEAD-luciferase reporter activity by setting is: (compound concentration: 200 nM) inactive: -0.279; (compound concentration: 10 uM) inactive: -0.812.
Consider `COC1=C(OC)C(=O)C(CCCCCCCCCCO)=C(C)C1=O` [idebe], for which the TEAD-luciferase reporter activity (compound concentration: 2 uM) was inactive: -0.862.
With `Cc1ccc(C(=O)NC2CC2)cc1NC(=O)c1cnn(-c2ncccc2C(F)(F)F)c1C`, the TEAD-luciferase reporter activity was inactive: -0.557 (compound concentration: 200 nM), inactive: -0.854 (compound concentration: 2 uM) and inactive: 0.0569 (compound concentration: 10 uM).
For `COc1cc(C(=O)Nc2ccccc2CCC2CCCCN2C)ccc1O` (centres undefined), the TEAD-luciferase reporter activity by setting is: (compound concentration: 200 nM) inactive: -0.522; (compound concentration: 2 uM) inactive: -0.745; (compound concentration: 10 uM) inactive: -0.592.
For `CCC(=O)O[C@]1(C(=O)SC)[C@H](C)C[C@H]2[C@@H]3C[C@H](F)C4=CC(=O)C=CC4(C)[C@@]3(F)[C@@H](O)CC21C` (some centres undefined) [ticabesone propionate], in that order: inactive: 0.0192, inactive: -0.411 and inactive: 0.839.
Regarding `CCCN(CCC)C(=O)C(Cc1ccc(OCCCN2CCN(C)CC2)cc1)NC(=O)c1ccc(Br)cc1` (centres undefined), the TEAD-luciferase reporter activity was inactive: -0.289 (compound concentration: 200 nM), inactive: -0.492 (compound concentration: 2 uM) and inactive: 0.215 (compound concentration: 10 uM).
On to `O=C1N=C(N2CCCC2)CN1c1ccccc1`, for which the TEAD-luciferase reporter activity runs as follows: (compound concentration: 200 nM) inactive: -0.917; (compound concentration: 2 uM) inactive: 1.42; (compound concentration: 10 uM) inactive: -1.41.
In the case of `CCCCC(=O)OCC(=O)[C@]1(O)Cc2c(O)c3c(c(O)c2[C@@H](O[C@H]2C[C@H](NC(=O)C(F)(F)F)[C@H](O)[C@H](C)O2)C1)C(=O)c1c(OC)cccc1C3=O` [Valrubicin], the TEAD-luciferase reporter activity runs as follows: (compound concentration: 200 nM) inactive: 0.232; (compound concentration: 2 uM) inactive: -0.516; (compound concentration: 10 uM) inactive: 2.28.
On to `O=C1CCCSc2ccc(Cl)cc21`, for which the TEAD-luciferase reporter activity is inactive: -0.777 (compound concentration: 200 nM), inactive: -1.12 (compound concentration: 2 uM) and inactive: 0.623 (compound concentration: 10 uM).
As to `CCN(CC)CCOC(c1ccccc1)c1ccccc1`, the TEAD-luciferase reporter activity is inactive: -0.763 (compound concentration: 200 nM), inactive: 0.138 (compound concentration: 2 uM) and inactive: 0.604 (compound concentration: 10 uM).
As for `CN(C)CCN(C)C1COc2ccccc2-c2c(C3CCCCC3)c3ccc(C(=O)O)cc3n2C1` (centres undefined), the TEAD-luciferase reporter activity was inactive: -0.782 (compound concentration: 200 nM), inactive: 0.0543 (compound concentration: 2 uM) and inactive: 0.829 (compound concentration: 10 uM).
For `CCCCc1cc(C(=O)O)cc(OCc2ccc(-c3ccccc3-c3nnn[nH]3)cc2F)n1`, in that order: inactive: -0.269, inactive: -1.58 and inactive: 1.43.
